Test results as given in publication PMC8433149.

Target: Engulfment and cell motility protein 1 (human (endogenous in MSC)), Q92556
Test: co-IP + affinity purification with mass spectrometry; MSC protein extract (HC-MSC and AS-MSC) incubated with an anti-ELMO1 antibody (1:100) or IgG control at 4 °C overnight, protein G agarose beads for another 4 h; immunoprecipitants collected for LC-MS/MS and western blotting
Conditions: remark: other sources report otherwise

B1: ELMO2, Q96JJ3 1-720 (protein)
chain: MPPPSDIVKVAIEWPGANAQLLEIDQKRPLASIIKEVCDGWSLPNPEYYTLRYADGPQLYITEQTRSDIKNGTILQLAISPSRAARQLMERTQSSNMETRLDAMKELAKLSADVTFATEFINMDGIIVLTRLVESGTKLLSHYSEMLAFTLTAFLELMDHGIVSWDMVSITFIKQIAGYVSQPMVDVSILQRSLAILESMVLNSQSLYQKIAEEITVGQLISHLQVSNQEIQTYAIALINALFLKAPEDKRQDMANAFAQKHLRSIILNHVIRGNRPIKTEMAHQLYVLQVLTFNLLEERMMTKMDPNDQAQRDIIFELRRIAFDAESDPSNAPGSGTEKRKAMYTKDYKMLGFTNHINPAMDFTQTPPGMLALDNMLYLAKVHQDTYIRIVLENSSREDKHECPFGRSAIELTKMLCEILQVGELPNEGRNDYHPMFFTHDRAFEELFGICIQLLNKTWKEMRATAEDFNKVMQVVREQITRALPSKPNSLDQFKSKLRSLSYSEILRLRQSERMSQDDFQSPPIVELREKIQPEILELIKQQRLNRLCEGSSFRKIGNRRRQERFWYCRLALNHKVLHYGDLDDNPQGEVTFESLQEKIPVADIKAIVTGKDCPHMKEKSALKQNKEVLELAFSILYDPDETLNFIAPNKYEYCIWIDGLSALLGKDMSSELTKSDLDTLLSMEMKLRLLDLENIQIPEAPPPIPKEPSSYDFVYHYG
B1 was tested, and the binding was “binds”.

No constants are given. Whether binding was seen depends on the method and setting. In cells and extracts the contact can be indirect. A yes stands for co-enrichment or nearness to the bait. Other partners may have been found.
